Here are results for 3 molecules from PMC8904154.

Chains of the proteins cited; added tags and fusions are not shown.
UniProt P61586: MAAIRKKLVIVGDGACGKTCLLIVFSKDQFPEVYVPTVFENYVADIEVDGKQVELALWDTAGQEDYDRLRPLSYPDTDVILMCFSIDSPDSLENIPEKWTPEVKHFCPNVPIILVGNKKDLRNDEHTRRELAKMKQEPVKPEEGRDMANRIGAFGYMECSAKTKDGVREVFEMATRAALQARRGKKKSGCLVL

Common to all, as to assay: co-IP; endogenous proteins from MDA-MB-231 lysate (NP-40 lysis buffer: 1% NP-40, 150 mM NaCl, 2 mM EDTA, 20 mM Tris-Cl, 10% glycerol) on antibody/protein G-agarose immunobeads, overnight at 4°C, washed with 1X PBS, Western blot; cells untreated or pretreated with DMSO or cytochalasin D (0.5, 2, 4, 6 µM) for 6 h; IgG as control IP
Assay [1] deals with T1, Alpha-1-Syntrophin (human (endogenous in MDA-MB-231)) (UniProt Q13424).
T1 sequence: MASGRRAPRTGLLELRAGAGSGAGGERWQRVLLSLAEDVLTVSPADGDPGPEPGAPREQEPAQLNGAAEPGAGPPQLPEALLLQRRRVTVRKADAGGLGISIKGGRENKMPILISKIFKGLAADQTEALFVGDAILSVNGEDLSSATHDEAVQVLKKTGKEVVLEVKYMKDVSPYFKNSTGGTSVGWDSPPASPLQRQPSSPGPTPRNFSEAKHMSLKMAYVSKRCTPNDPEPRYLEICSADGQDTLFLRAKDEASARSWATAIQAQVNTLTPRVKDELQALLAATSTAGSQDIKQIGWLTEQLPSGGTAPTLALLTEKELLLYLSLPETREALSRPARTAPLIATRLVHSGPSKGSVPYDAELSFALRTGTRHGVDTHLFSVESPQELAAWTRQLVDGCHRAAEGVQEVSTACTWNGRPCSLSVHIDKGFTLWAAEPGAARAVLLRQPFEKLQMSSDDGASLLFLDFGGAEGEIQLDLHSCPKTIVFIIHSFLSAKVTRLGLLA

For assay [2], the target named is T2, p66Shc (human (endogenous in MDA-MB-231)) (UniProt P29353).
T2 sequence: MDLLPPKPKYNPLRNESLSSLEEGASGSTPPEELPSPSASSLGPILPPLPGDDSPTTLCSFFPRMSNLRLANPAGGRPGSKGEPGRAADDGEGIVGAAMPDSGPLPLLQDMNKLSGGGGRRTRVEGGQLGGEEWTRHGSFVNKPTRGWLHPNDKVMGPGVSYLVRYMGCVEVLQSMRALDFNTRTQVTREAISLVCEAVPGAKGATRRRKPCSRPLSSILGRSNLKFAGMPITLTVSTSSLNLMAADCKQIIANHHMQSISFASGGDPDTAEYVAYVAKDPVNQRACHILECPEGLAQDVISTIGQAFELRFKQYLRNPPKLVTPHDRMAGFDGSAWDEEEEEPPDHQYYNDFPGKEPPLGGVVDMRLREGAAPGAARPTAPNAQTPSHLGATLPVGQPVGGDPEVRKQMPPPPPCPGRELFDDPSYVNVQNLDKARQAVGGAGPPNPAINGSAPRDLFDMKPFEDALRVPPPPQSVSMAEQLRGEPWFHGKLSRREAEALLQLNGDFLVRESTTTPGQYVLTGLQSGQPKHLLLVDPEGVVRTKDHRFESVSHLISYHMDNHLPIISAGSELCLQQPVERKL

For assay [3], the target named is T1, Alpha-1-Syntrophin (human (endogenous in MDA-MB-231)). The source holds these as a separate data set.
The target in assay [4] is RhoA GTPase (human (endogenous in MDA-MB-231)) (UniProt P61586).
Assay [5] has as its target T2, p66Shc (human (endogenous in MDA-MB-231)). The source holds these as a separate data set.

Like-named read-outs stand apart in the source and are kept apart here. These are yes or no findings as the source states them, for the method shown. In cells and extracts the contact can be indirect. Some entries that bind do so weakly or less than the wild type.

On to RhoA GTPase (from UniProt P61586 1-193), for which the binding entry in assay [1] and in assay [2] was “binds” in each case.

B1: p66Shc (protein, UniProt P29353-1 1-583)
chain: MDLLPPKPKYNPLRNESLSSLEEGASGSTPPEELPSPSASSLGPILPPLPGDDSPTTLCSFFPRMSNLRLANPAGGRPGSKGEPGRAADDGEGIVGAAMPDSGPLPLLQDMNKLSGGGGRRTRVEGGQLGGEEWTRHGSFVNKPTRGWLHPNDKVMGPGVSYLVRYMGCVEVLQSMRALDFNTRTQVTREAISLVCEAVPGAKGATRRRKPCSRPLSSILGRSNLKFAGMPITLTVSTSSLNLMAADCKQIIANHHMQSISFASGGDPDTAEYVAYVAKDPVNQRACHILECPEGLAQDVISTIGQAFELRFKQYLRNPPKLVTPHDRMAGFDGSAWDEEEEEPPDHQYYNDFPGKEPPLGGVVDMRLREGAAPGAARPTAPNAQTPSHLGATLPVGQPVGGDPEVRKQMPPPPPCPGRELFDDPSYVNVQNLDKARQAVGGAGPPNPAINGSAPRDLFDMKPFEDALRVPPPPQSVSMAEQLRGEPWFHGKLSRREAEALLQLNGDFLVRESTTTPGQYVLTGLQSGQPKHLLLVDPEGVVRTKDHRFESVSHLISYHMDNHLPIISAGSELCLQQPVERKL
As for B1, the binding result in assay [3] and in assay [4] was “binds” throughout.

B2: Alpha-1-Syntrophin (protein, UniProt Q13424 1-505)
chain: MASGRRAPRTGLLELRAGAGSGAGGERWQRVLLSLAEDVLTVSPADGDPGPEPGAPREQEPAQLNGAAEPGAGPPQLPEALLLQRRRVTVRKADAGGLGISIKGGRENKMPILISKIFKGLAADQTEALFVGDAILSVNGEDLSSATHDEAVQVLKKTGKEVVLEVKYMKDVSPYFKNSTGGTSVGWDSPPASPLQRQPSSPGPTPRNFSEAKHMSLKMAYVSKRCTPNDPEPRYLEICSADGQDTLFLRAKDEASARSWATAIQAQVNTLTPRVKDELQALLAATSTAGSQDIKQIGWLTEQLPSGGTAPTLALLTEKELLLYLSLPETREALSRPARTAPLIATRLVHSGPSKGSVPYDAELSFALRTGTRHGVDTHLFSVESPQELAAWTRQLVDGCHRAAEGVQEVSTACTWNGRPCSLSVHIDKGFTLWAAEPGAARAVLLRQPFEKLQMSSDDGASLLFLDFGGAEGEIQLDLHSCPKTIVFIIHSFLSAKVTRLGLLA
As for B2, the binding result in assay [4] and in assay [5] was “binds” each time.
